The text below walks through data of doi:10.1101/2021.12.17.473155.

Protein sequences, listed by entry. Tags and fused reporters are not part of them.
UniProt O15550: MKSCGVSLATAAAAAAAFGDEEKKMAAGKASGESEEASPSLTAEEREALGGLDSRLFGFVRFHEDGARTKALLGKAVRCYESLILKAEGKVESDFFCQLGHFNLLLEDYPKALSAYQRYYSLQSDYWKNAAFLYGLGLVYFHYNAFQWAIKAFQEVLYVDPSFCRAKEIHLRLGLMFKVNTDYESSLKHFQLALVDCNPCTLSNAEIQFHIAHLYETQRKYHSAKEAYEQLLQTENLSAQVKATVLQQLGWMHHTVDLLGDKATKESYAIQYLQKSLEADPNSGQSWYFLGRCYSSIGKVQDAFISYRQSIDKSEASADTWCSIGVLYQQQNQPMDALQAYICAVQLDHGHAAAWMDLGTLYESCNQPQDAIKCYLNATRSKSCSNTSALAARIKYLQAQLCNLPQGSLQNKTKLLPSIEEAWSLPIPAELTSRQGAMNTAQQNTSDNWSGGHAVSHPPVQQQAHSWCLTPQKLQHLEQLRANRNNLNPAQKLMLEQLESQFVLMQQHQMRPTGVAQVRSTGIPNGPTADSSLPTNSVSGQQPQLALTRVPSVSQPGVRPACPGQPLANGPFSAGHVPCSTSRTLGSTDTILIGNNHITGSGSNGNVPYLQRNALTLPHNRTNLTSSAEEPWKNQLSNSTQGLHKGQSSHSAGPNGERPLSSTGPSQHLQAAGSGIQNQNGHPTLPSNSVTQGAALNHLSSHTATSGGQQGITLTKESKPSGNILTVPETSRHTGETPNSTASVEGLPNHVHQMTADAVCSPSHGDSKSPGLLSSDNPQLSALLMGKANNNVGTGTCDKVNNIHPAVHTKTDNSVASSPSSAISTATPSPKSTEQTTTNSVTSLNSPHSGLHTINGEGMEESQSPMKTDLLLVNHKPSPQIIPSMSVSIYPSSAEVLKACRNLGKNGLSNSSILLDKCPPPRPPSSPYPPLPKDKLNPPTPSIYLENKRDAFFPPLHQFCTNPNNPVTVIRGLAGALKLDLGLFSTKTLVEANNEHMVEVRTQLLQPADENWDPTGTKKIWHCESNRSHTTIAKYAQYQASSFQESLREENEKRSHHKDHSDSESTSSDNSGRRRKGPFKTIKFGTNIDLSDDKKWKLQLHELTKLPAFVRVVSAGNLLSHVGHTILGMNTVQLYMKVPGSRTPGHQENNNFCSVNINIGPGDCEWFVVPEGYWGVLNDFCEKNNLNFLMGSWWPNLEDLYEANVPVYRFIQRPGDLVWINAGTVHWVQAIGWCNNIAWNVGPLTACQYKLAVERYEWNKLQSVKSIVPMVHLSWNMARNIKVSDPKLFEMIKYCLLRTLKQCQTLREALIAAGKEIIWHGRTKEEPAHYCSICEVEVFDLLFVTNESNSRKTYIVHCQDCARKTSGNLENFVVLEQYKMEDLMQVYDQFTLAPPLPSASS
UniProt Q13547: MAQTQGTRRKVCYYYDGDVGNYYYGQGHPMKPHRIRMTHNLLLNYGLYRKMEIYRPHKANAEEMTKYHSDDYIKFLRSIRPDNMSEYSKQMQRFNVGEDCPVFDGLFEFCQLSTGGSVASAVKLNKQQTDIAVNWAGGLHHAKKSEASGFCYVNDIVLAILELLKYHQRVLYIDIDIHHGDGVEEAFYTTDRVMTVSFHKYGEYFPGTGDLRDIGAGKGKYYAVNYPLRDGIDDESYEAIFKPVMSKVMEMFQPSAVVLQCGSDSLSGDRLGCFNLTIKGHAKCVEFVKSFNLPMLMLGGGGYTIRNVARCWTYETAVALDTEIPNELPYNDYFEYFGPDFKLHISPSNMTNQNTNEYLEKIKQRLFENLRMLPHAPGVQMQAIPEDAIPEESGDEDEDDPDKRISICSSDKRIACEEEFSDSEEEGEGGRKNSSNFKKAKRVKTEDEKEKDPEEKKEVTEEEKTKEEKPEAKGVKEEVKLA
UniProt Q15291: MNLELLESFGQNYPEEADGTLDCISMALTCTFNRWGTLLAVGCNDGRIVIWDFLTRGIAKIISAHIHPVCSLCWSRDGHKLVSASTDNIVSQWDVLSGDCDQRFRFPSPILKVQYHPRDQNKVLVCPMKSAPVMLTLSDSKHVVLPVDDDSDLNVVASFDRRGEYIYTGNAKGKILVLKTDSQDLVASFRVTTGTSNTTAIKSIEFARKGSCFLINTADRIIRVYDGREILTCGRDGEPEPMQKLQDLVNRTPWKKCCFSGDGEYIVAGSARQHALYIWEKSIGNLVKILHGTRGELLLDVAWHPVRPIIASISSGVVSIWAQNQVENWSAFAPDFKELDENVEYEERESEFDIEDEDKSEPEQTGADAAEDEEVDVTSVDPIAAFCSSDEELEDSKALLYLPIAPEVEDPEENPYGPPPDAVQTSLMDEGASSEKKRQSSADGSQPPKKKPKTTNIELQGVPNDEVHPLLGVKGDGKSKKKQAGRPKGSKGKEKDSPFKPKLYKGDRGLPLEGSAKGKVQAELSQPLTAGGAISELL
UniProt Q92769: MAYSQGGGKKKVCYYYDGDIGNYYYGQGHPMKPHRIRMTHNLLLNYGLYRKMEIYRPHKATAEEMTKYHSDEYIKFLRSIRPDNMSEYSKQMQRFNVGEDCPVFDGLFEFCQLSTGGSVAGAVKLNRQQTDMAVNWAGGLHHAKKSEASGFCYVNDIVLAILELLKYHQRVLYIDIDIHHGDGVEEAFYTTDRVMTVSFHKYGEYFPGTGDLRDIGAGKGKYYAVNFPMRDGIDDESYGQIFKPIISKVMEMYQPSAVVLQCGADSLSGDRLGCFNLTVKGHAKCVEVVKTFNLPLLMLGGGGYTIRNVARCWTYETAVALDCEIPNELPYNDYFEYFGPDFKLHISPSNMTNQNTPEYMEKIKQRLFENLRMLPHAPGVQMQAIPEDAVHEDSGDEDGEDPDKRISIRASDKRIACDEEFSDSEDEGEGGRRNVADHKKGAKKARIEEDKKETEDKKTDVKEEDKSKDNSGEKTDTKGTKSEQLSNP
UniProt Q92830: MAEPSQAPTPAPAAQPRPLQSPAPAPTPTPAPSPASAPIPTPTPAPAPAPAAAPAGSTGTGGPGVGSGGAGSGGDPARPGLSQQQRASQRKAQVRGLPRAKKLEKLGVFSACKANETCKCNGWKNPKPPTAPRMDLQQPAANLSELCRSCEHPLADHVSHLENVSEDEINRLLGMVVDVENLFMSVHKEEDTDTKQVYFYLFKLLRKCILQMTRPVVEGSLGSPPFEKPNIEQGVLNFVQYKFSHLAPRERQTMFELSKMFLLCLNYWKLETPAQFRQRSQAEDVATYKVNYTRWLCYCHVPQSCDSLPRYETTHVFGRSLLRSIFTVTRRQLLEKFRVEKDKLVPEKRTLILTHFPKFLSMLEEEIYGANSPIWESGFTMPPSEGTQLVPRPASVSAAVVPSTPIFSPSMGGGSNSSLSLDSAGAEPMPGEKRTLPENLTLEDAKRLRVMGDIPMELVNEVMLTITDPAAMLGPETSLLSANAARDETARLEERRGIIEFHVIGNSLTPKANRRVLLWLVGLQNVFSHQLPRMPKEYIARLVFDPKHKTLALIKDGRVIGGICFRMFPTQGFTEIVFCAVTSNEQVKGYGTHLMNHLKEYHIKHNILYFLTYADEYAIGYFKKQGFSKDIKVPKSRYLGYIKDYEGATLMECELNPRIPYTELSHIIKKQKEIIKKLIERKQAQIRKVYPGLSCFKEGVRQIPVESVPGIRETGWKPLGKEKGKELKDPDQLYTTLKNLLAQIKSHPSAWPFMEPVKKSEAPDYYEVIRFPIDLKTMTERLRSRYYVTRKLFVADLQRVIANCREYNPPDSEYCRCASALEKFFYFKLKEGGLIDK

Experiment [1] has as its target T1, FLAG-ELMSAN1 (UniProt Q6PJG2).
T1 sequence: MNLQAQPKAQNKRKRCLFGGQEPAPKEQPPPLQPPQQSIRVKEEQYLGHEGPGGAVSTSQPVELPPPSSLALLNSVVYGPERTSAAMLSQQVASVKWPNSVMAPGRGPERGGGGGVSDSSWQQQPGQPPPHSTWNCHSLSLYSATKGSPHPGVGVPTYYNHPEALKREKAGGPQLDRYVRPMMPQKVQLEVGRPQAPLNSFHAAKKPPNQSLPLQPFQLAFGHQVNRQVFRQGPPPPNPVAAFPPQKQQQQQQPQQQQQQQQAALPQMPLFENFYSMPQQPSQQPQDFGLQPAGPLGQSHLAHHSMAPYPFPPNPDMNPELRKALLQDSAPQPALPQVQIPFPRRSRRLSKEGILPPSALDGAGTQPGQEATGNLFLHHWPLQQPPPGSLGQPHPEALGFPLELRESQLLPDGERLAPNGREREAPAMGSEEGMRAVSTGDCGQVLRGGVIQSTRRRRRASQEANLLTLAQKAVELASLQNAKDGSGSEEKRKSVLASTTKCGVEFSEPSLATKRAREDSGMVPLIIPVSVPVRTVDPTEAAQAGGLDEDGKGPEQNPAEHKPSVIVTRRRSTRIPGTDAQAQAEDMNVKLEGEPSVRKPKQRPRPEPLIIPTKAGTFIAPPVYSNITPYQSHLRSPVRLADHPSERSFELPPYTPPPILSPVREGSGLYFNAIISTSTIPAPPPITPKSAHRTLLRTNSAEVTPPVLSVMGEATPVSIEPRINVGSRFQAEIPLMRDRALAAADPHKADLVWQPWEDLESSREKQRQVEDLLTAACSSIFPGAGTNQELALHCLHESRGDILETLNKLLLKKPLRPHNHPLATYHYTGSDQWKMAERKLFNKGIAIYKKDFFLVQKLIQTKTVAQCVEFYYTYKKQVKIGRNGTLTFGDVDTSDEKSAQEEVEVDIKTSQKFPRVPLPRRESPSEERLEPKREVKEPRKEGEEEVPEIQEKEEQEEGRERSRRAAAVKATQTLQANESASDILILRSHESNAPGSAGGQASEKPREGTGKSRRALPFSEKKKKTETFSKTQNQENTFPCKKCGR
Briefly: co-IP.

For experiment [2], the target named is FLAG-UTX (UniProt O15550). Briefly: co-sedimentation.
The target of experiment [3] is FLAG-UTX (UniProt O15550). Briefly: co-IP.
The target of experiment [4] is T2, FLAG-DNTTIP1 (UniProt Q9H147).
T2 sequence: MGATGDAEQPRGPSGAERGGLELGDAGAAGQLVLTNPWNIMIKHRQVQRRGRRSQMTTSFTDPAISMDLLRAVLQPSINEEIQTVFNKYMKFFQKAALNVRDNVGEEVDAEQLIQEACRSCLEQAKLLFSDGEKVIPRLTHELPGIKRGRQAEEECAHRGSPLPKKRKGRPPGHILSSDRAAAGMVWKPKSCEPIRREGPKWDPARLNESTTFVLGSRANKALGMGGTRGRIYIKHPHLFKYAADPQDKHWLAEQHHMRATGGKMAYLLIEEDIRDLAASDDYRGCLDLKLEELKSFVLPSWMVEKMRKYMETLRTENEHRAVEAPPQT
Briefly: co-IP.

For experiment [5], the target named is FLAG-UTX (UniProt O15550). Briefly: co-IP. This is another data set of the same source.
In experiment [6] the target is FLAG-UTX (UniProt O15550). Briefly: co-IP. The source holds these as a separate data set.

Results are given in words; binding and its absence hold for the method and conditions named. Binding seen in cells or lysates may run through a third protein. Some results given as binding are weak or reduced against the parent protein; the word gives no strength. For part of these data: Tags and fused reporters may be left off the sequences shown.

On to “HDAC1 (from UniProt Q13547 1-482) (enzyme)”, for which, in experiment [1], the binding entry is recorded as “binds”.

With RBBP5 (from UniProt Q15291 1-538), the binding result in experiment [2] and in experiment [3] was “binds” each time.

Turning to “HDAC2 (from UniProt Q92769 1-488) (enzyme)”, the binding entry in experiment [1] and in experiment [4] was “binds” in each case.

As to “KAT2A (from UniProt Q92830 1-837) (enzyme)”, the binding entry in experiment [3] was “no binding”.

B1: ELMSAN1 (protein, UniProt Q6PJG2 1-1045)
chain: MNLQAQPKAQNKRKRCLFGGQEPAPKEQPPPLQPPQQSIRVKEEQYLGHEGPGGAVSTSQPVELPPPSSLALLNSVVYGPERTSAAMLSQQVASVKWPNSVMAPGRGPERGGGGGVSDSSWQQQPGQPPPHSTWNCHSLSLYSATKGSPHPGVGVPTYYNHPEALKREKAGGPQLDRYVRPMMPQKVQLEVGRPQAPLNSFHAAKKPPNQSLPLQPFQLAFGHQVNRQVFRQGPPPPNPVAAFPPQKQQQQQQPQQQQQQQQAALPQMPLFENFYSMPQQPSQQPQDFGLQPAGPLGQSHLAHHSMAPYPFPPNPDMNPELRKALLQDSAPQPALPQVQIPFPRRSRRLSKEGILPPSALDGAGTQPGQEATGNLFLHHWPLQQPPPGSLGQPHPEALGFPLELRESQLLPDGERLAPNGREREAPAMGSEEGMRAVSTGDCGQVLRGGVIQSTRRRRRASQEANLLTLAQKAVELASLQNAKDGSGSEEKRKSVLASTTKCGVEFSEPSLATKRAREDSGMVPLIIPVSVPVRTVDPTEAAQAGGLDEDGKGPEQNPAEHKPSVIVTRRRSTRIPGTDAQAQAEDMNVKLEGEPSVRKPKQRPRPEPLIIPTKAGTFIAPPVYSNITPYQSHLRSPVRLADHPSERSFELPPYTPPPILSPVREGSGLYFNAIISTSTIPAPPPITPKSAHRTLLRTNSAEVTPPVLSVMGEATPVSIEPRINVGSRFQAEIPLMRDRALAAADPHKADLVWQPWEDLESSREKQRQVEDLLTAACSSIFPGAGTNQELALHCLHESRGDILETLNKLLLKKPLRPHNHPLATYHYTGSDQWKMAERKLFNKGIAIYKKDFFLVQKLIQTKTVAQCVEFYYTYKKQVKIGRNGTLTFGDVDTSDEKSAQEEVEVDIKTSQKFPRVPLPRRESPSEERLEPKREVKEPRKEGEEEVPEIQEKEEQEEGRERSRRAAAVKATQTLQANESASDILILRSHESNAPGSAGGQASEKPREGTGKSRRALPFSEKKKKTETFSKTQNQENTFPCKKCGR
As to B1, the binding result in experiment [2], in experiment [5] and in experiment [6] was “binds” in each case.
